Laboratory results: the supplement of paper PMC10338343
± gives the standard deviation. The list shows a part of the results, in another mix than the full data. Many of these values have a large error.

system: MILI (PIWIL2) piRISC loaded with piRNA #2 (26 nt); assay: pre-steady-state target cleavage rate (min^-1); MIWI and MILI are mouse PIWI proteins and EfPiwi is from a freshwater sponge; tags in brackets are library labels; higher = faster piRNA-guided slicing of the target; conditions: guide: piRNA #2 5'p-UUAGGUAACCCAGUAGAUCCAGAGGA; auxiliary factor: 500 nM mouse GTSF1
Method: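 Cleave-'n-Seq: a library of target RNAs (target site embedded in constant flanks, ACAGCATTCCGCGTTAGTGATATCCG... 5' flank; DNA-blocked outside the site) at 0.1 nM was incubated with 1 nM active mouse MILI or MIWI piRISC (synthetic 5'-monophosphorylated piRNA guide) with or without 500 nM mouse GTSF1 at 33 °C for 1 min to 16 h. Uncleaved targets were sequenced and normalised to non-target controls, and the pooled three trials were fitted to a burst-and-steady-state model to give the pre-steady-state cleavage rate (min^-1; k3 is constrained to at most 1e-4). Sequence is the target site only; target names encode pairing extent (gX:gY) and contiguous / 1-mismatch / 2-mismatch / bulge geometry. Fits with R² ≤ 0 are excluded.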

Row | Sequence | pre-steady-state target cleavage rate
1 | CUUAAGGAGACCUACUACUGGAGUUACCUAA | 0.000181 ± 0.024
2 | CUUAAGGACUGGUUCUACUGGGUAACCUAA | 0.00462 ± 0.0094
3 | CUUAAGGAGACGAUCUAGAGGGUUACCUAA | 0.00251 ± 0.0059
4 | CUUAAGGAGACCUACUAUUGGGUUACCUAA | 0.000354 ± 0.025
5 | CUUAUCCUCUGGUAGUACUGGGUUACCUAA | 0.103 ± 0.035
6 | CUUAUCCUGUGGAUCUACUGGCUUACCUAA | 0.000253 ± 0.036
7 | CUUAAGGAGACCUUCUACAGGGUUACCUUA | 0.00047 ± 0.017
8 | CUUAUCCUCUGAAUCUACUGGGUUACCUAA | 0.109 ± 0.023
9 | CUUAAGGUCUGGAUCUAGUGGGUUACGUAA | 0.0114 ± 0.004
10 | CUUAAGGAGACGAUCUACUGGGUUACCUCA | 0.000979 ± 0.011
11 | CUUAAGGAGACCAUCUACUGGCUUACCAAA | 0.00022 ± 0.035
12 | CUUAAGGAGACCUAGAUGUGGGUUUGCUAA | 0.000481 ± 0.018
13 | CUUAAGGAGACCAUCUACUGGGUGUACCUAA | 0.000541 ± 0.019
14 | CUUAAGGAGAGGAUGCUACUGGGUUACCUAA | 0.00163 ± 0.007
15 | CUUAAGGAGUGGAUCUAUCUGGGUUACCUAA | 0.000107 ± 0.048
16 | CUUAAGGUCUGGAACUACUGGGUUAGCUAA | 0.00906 ± 0.012
17 | CUUAAGCUCUGCAUCUACUGGGUUACCUAA | 0.0767 ± 0.016
18 | CUUAAGGAGUGAGAUCUACUGGGUUACCUAA | 0.00234 ± 0.0056
19 | CUUAACCUCUGGGAUCUACUGGGUUACCUAA | 0.168 ± 0.03
20 | CUUAAGGAGACCAUCUACUGGGUUACCUUA | 0.000554 ± 0.0096
21 | CUUAAGGAGACCUAGAUCUAGGUUACCUAA | 0.000241 ± 0.018
22 | CUUAAGCUCUGGAUCUACUAGGGUUACCUAA | 0.00205 ± 0.0051
23 | CUUAAGGAGACCUAGAAUUGGGUUACCUAA | 0.000169 ± 0.047
24 | CUUAAGGAGACGAUCUACUUGGGUUACCUAA | 0.00153 ± 0.0064

Random excerpt: five entries already listed
Row | Sequence | pre-steady-state target cleavage rate
13 | CUUAAGGAGACCAUCUACUGGGUGUACCUAA | 0.000541 ± 0.019
15 | CUUAAGGAGUGGAUCUAUCUGGGUUACCUAA | 0.000107 ± 0.048
22 | CUUAAGCUCUGGAUCUACUAGGGUUACCUAA | 0.00205 ± 0.0051
4 | CUUAAGGAGACCUACUAUUGGGUUACCUAA | 0.000354 ± 0.025
6 | CUUAUCCUGUGGAUCUACUGGCUUACCUAA | 0.000253 ± 0.036

(listing goes on)

Row | Sequence | pre-steady-state target cleavage rate
25 | CUUAAGGAGACCUACUACUGGGUUACGUAA | 0.000454 ± 0.019
26 | CUUAAGGAGACGACCUACUGGGUUACCUAA | 0.00322 ± 0.0036
27 | CUUAAGGAGUGGAUCAACUGGGUUACGUAA | 0.000608 ± 0.02
28 | CUUAAGGAGAGGAUCUACUGGGAAACCUAA | 0.000976 ± 0.0089
29 | CUUAAGGACUGGAUCAACUGGGUUAGCUAA | 0.00417 ± 0.0081
30 | CUUAUCCUGUGGAUCUACUCGGUUACCUAA | 0.00114 ± 0.012
31 | CUUAUCCUCUGGAUCUACUGGGAUAGCUAA | 0.0182 ± 0.0088
32 | CUUAAGGACAGGAUCUACUGGGUUACGUAA | 0.00127 ± 0.016
33 | CUUAAGGACUGCAUCUACAGGGUUACCUAA | 0.0435 ± 0.015
34 | CUUAAGGAGACCUAGAUGUGGUGUUACCUAA | 0.000297 ± 0.021
35 | CUUAAGGACUCCUUCUACUGGGUUACCUAA | 0.000554 ± 0.013
36 | CUUAAGGUCUGGAUCUACUUGGGUUACCUAA | 0.000975 ± 0.0071
37 | CUUAAGGACUGGAUCUACUUGGUUACCUAA | 0.000791 ± 0.016
38 | CUUAAGGACUGGAACUACUGGGUAACCUAA | 0.00268 ± 0.0097
39 | CUUAAGGACUGGAUGUACUGCGUUACCUAA | 0.00228 ± 0.011
40 | CUUAAGGAGACGAUCUACUGGGUAUACCUAA | 0.00159 ± 0.0059
41 | CUUAAGGAGUGGAUGUAGUGGGUUACCUAA | 0.00193 ± 0.0058
42 | CUUAAGGAGACCUAGAUCUGGGUCACCUAA | 0.000374 ± 0.033
43 | CUUAAGGAGACGAUCUUCUGGGUUACCAAA | 0.00122 ± 0.0061
44 | CUUAUCCUCUGGAUCUACUCGGUUACGUAA | 0.000126 ± 0.1
45 | CUUAAGGAGAGGAUCUACUGGGAUACCUAA | 0.00208 ± 0.0063
46 | CUUAUCCUCUCGUUCUACUGGGUUACCUAA | 0.136 ± 0.021
47 | CUUAAGGACUGCAUGUACUGGGUUACCUAA | 0.00613 ± 0.0099
48 | CUUAAGGACUGGAUCUACUGGGAUAGCUAA | 0.000162 ± 0.043

Row | Sequence | pre-steady-state target cleavage rate
49 | CUUAAGGAGACGAUCAACUGGGAUACCUAA | 0.000129 ± 0.038
50 | CUUAAGGUCUGGAACUACUGGGUUUCCUAA | 0.00266 ± 0.006
51 | CUUAAGGAGACCUAGAUGACGGUUACCAUA [g4:g10:cont:t1A] | 0.000279 ± 0.017
52 | CUUAAGGAGACCAUCUACAGCGUUACCUAA | 0.000936 ± 0.0066
53 | CUUAAGGACUGGAUCUACUGGGUUAGCUUA | 0.00119 ± 0.021
54 | CUUAUCCUCUGGAUCUGACUGGGUUACCUAA | 0.000784 ± 0.022
55 | CUUAAGGUCUGGAUCACUGGGUUACCUAA | 0.00355 ± 0.0046
56 | CUUAAGGAGAGGAACUACUGGGUUACCUAA | 0.00185 ± 0.0073
57 | CUUAAGGAGAGGAACUACUGGGUUUCCUAA | 0.00118 ± 0.0078
58 | CUUAAGGAGUGGAUCUUCUGGGUUAGCUAA | 0.000372 ± 0.031
59 | CUUAAGGACUGGAUCUACUGGUUUACCUAA | 0.00208 ± 0.016
60 | CUUAAGGAGACGAUCUACUGGGUUAUCUAA | 0.00177 ± 0.005
61 | CUUAUCCUCUGGAUCAACUGGCUUACCUAA | 0.000669 ± 0.016
62 | CUUAUCCUCUGUAUCUACUGGGUUACCUAA | 0.0865 ± 0.015
63 | CUUAUCGUCUCGAUCUACUGGGUUACCUAA | 0.0585 ± 0.014
64 | CUUAAGGAGACCAACUACUCGGUUACCUAA | 0.000152 ± 0.027
65 | CUUAAGGAGACCUAGUGCUGGGUUACCUAA | 0.000484 ± 0.02
66 | CUUAAGGUCUGGAUCUAUCUGGGUUACCUAA | 0.000503 ± 0.014
67 | CUUAAGGACUGGAAUCUACUGGGUUACCUAA | 0.00939 ± 0.0096
68 | CUUAACCUCUGGAUCUACUGCGAUACCUAA | 0.000935 ± 0.01
69 | CUUAAGGAGUGGAACUACUGGGUUACGUAA | 0.000343 ± 0.029
70 | CUUAAGGAGAGGAUCAUACUGGGUUACCUAA | 0.000211 ± 0.024
71 | CUUAAGGAGUGGACUCUACUGGGUUACCUAA | 0.00389 ± 0.006
72 | CUUAUCCUCUGGAUCUACUGGCUUACCUUA | 0.00121 ± 0.0074
